Reference: publication PMC7732837
Results are given in words; binding and its absence hold for the method and conditions named. In cells and extracts the contact can be indirect. Some entries that bind do so weakly or less than the wild type. Tags and fused reporters may be left off the sequences shown.

Chains of the proteins cited; added tags and fusions are not shown.
UniProt Q16665: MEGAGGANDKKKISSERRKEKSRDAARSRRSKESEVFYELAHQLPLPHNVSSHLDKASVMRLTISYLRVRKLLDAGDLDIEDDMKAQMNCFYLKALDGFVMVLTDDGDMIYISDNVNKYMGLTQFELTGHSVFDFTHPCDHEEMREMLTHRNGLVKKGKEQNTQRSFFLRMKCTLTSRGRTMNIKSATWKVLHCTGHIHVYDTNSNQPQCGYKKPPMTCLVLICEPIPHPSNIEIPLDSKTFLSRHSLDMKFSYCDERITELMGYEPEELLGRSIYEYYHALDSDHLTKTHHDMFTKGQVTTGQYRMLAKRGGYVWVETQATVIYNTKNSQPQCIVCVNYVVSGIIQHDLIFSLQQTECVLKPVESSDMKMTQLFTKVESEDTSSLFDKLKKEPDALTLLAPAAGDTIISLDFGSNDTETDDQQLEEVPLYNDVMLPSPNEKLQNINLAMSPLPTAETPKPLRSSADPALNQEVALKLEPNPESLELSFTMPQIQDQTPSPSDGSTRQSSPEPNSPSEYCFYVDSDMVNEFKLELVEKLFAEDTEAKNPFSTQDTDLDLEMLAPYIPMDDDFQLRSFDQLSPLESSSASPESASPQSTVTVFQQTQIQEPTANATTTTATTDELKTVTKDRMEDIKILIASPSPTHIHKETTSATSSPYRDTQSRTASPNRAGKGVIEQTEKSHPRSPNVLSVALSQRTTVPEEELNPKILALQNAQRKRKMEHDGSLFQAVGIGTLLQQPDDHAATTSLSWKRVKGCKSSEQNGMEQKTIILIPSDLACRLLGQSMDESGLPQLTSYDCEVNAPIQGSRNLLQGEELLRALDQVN

Columns and labels:
GST-BTG3, full length = target: T1, GST-BTG3, full length (UniProt Q14201); experiment: pull-down; recombinant GST-BTG3 proteins (full length, N-terminal or C-terminal domain) as bait with 293T lysates expressing HA-HIF-1α; only the target purified
T1 sequence: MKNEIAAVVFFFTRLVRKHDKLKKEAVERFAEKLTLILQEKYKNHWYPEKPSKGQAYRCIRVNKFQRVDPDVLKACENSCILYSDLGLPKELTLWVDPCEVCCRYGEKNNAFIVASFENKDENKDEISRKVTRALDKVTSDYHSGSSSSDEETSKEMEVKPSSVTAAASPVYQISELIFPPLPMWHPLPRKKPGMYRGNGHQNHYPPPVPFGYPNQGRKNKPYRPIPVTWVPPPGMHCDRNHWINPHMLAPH

[1] = target: HA-tagged HIF-1α, full length (human) (UniProt Q16665); experiment: co-IP; 293T cells co-transfected with HA-HIF-1α (full length or mutant) and myc-BTG3; lysates in CSK buffer (10 mM PIPES pH 7.0, 100 mM NaCl, 0.1% Triton-X-100) immunoprecipitated with anti-HA or anti-myc and protein G resin, 1.5 h at 4 °C

| Molecule | binding (GST-BTG3, full length) | binding [1] |
| --- | --- | --- |
| HA-tagged HIF-1α, full length (from UniProt Q16665 1-826) | binds |  |
| myc-tagged BTG3 (protein, UniProt Q14201 1-252) MKNEIAAVVFFFTRLVRKHDKLKKEAVERFAEKLTLILQEKYKNHWYPEKPSKGQAYRCIRVNKFQRVDPDVLKACENSCILYSDLGLPKELTLWVDPCEVCCRYGEKNNAFIVASFENKDENKDEISRKVTRALDKVTSDYHSGSSSSDEETSKEMEVKPSSVTAAASPVYQISELIFPPLPMWHPLPRKKPGMYRGNGHQNHYPPPVPFGYPNQGRKNKPYRPIPVTWVPPPGMHCDRNHWINPHMLAPH |  | binds |
